Some of the results follow. Most values lie at the level of the controls, where differences are scatter.
compound: Cc1nc(Nc2ncc(C(=O)Nc3c(C)cccc3Cl)s2)cc(N2CCN(CCO)CC2)n1 [dasatinib]; test: log2 fold change of tryptic peptide abundance, ligand vs vehicle (limited proteolysis) (log2 ratio); higher = more trypsin-susceptible (destabilized); conditions: ligand concentration: 5 uM; sample: K562 cleared lysate

Amino acid sequences for entries named in this document (tags omitted). A change or cut given only in a name is not applied to a line headed by its entry.
UniProt Q9Y4R8, whole entry: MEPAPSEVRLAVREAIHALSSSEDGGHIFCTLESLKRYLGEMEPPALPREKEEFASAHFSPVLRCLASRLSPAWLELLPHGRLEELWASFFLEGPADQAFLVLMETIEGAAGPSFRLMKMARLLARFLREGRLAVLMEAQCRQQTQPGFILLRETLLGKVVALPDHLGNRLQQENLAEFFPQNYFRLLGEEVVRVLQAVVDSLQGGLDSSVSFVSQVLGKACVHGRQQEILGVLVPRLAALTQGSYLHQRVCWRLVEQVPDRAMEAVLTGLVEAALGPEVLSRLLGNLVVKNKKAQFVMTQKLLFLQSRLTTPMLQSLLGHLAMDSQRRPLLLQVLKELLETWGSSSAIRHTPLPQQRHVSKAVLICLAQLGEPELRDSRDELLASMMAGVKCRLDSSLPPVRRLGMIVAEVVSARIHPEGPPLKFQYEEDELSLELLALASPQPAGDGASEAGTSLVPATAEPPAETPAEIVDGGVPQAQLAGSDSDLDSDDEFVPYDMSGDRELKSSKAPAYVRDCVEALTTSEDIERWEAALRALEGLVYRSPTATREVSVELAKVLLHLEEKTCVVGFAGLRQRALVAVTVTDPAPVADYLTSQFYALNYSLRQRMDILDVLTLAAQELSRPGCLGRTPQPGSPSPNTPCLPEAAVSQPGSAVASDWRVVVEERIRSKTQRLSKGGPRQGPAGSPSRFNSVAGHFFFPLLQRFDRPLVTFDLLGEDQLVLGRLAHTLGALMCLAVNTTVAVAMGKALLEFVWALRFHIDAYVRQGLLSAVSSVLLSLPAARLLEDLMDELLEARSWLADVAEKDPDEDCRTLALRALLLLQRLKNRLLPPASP
UniProt Q9Y2J4: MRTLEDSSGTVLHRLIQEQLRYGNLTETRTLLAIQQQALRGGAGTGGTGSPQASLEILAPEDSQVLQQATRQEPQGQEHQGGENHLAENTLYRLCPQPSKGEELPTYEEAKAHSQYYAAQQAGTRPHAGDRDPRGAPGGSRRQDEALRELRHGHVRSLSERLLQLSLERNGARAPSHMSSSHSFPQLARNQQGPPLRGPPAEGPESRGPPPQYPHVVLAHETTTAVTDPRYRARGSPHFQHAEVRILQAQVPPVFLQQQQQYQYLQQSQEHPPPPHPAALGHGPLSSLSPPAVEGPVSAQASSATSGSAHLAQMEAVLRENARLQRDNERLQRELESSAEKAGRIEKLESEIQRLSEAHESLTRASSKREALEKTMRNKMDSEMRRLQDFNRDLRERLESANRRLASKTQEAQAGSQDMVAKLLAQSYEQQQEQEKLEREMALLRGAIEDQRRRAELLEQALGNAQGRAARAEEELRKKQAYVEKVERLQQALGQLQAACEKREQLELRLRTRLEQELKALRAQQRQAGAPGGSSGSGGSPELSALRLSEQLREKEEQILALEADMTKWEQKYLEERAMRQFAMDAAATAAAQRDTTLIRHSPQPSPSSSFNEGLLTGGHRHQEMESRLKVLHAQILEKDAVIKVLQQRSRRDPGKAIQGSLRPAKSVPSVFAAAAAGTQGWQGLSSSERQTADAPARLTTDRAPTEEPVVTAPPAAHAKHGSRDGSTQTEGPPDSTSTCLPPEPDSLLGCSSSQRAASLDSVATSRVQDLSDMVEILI
UniProt Q9Y281, whole entry: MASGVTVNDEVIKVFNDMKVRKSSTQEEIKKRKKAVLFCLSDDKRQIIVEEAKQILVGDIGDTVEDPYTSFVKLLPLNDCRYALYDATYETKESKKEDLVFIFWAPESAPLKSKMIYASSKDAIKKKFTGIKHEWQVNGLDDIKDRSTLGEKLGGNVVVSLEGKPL
UniProt Q9Y366: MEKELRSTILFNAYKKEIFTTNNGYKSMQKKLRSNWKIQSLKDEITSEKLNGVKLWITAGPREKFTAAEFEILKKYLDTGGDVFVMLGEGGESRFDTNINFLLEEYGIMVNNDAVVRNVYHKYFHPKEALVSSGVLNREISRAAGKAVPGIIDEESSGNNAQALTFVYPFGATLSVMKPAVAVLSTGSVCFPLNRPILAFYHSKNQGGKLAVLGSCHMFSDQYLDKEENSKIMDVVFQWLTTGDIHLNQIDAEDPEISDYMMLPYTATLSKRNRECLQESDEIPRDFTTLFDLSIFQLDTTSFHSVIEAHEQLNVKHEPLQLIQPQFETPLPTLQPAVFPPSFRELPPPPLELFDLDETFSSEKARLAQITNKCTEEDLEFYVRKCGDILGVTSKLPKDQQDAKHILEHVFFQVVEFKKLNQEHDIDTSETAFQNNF
UniProt Q9Y2W2: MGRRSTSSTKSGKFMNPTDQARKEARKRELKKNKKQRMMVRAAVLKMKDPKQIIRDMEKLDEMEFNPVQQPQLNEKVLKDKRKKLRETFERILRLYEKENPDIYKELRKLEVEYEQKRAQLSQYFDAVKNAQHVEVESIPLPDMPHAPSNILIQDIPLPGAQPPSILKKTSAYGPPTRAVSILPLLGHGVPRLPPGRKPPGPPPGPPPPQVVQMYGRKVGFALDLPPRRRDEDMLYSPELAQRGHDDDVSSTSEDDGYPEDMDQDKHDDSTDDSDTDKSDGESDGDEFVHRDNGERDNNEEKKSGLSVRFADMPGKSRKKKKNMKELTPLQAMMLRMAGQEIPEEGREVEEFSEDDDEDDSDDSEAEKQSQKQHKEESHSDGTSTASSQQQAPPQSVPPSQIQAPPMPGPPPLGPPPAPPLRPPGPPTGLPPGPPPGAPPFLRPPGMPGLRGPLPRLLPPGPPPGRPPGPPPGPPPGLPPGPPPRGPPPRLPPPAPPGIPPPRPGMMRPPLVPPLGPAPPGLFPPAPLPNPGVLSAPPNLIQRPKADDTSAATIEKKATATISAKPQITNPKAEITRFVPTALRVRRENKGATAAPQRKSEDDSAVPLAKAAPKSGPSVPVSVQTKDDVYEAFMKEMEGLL
UniProt Q9Y6I4: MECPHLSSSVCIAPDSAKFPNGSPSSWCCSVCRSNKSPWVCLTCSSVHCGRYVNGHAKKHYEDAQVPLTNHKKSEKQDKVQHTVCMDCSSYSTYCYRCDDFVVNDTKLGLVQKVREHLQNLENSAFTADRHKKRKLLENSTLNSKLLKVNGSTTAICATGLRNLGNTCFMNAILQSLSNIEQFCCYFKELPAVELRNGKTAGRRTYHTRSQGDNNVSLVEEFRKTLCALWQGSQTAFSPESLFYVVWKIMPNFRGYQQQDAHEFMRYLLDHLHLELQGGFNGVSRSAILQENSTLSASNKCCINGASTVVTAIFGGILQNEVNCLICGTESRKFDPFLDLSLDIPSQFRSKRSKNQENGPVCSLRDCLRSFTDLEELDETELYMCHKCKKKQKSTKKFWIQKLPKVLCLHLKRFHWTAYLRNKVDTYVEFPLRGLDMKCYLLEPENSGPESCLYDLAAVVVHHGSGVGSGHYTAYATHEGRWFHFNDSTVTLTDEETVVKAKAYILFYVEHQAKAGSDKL
UniProt Q9Y6E0: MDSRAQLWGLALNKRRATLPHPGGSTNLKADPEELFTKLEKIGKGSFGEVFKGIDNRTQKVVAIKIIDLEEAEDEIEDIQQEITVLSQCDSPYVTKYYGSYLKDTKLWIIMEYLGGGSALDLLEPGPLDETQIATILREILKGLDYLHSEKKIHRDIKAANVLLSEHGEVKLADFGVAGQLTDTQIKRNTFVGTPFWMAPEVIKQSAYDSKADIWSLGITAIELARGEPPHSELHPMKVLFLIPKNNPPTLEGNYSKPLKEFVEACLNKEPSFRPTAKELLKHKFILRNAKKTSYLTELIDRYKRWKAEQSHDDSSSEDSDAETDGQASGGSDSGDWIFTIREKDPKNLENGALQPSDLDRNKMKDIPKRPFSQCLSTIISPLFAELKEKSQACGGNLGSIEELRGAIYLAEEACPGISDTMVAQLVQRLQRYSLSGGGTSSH
UniProt Q9Y2V0: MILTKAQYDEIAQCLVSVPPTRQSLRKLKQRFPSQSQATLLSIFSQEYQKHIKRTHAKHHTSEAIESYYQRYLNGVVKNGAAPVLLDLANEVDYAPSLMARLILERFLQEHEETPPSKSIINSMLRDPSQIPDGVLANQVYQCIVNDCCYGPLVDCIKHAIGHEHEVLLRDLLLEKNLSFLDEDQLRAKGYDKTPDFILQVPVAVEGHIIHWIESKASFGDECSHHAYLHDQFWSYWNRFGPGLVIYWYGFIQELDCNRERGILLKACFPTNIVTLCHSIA
UniProt Q9Y3F4: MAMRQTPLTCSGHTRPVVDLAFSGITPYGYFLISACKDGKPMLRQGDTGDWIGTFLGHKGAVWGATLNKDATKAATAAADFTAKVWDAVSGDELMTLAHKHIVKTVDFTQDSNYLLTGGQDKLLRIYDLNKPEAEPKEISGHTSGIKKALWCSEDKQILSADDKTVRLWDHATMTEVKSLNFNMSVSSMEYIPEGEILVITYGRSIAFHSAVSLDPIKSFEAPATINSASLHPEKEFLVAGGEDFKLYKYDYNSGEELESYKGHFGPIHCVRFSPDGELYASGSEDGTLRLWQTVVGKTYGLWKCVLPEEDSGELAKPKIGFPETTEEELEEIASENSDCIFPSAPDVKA
UniProt Q9Y576: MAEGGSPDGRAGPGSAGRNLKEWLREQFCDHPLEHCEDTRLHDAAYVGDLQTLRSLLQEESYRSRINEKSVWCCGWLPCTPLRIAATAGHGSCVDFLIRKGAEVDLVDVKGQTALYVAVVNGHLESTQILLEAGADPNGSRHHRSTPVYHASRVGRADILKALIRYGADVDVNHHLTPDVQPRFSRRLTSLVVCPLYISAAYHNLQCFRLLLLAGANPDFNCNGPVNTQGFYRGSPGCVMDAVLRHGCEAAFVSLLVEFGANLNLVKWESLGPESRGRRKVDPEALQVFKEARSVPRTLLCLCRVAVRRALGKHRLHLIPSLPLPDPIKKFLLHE
UniProt Q9Y4H4: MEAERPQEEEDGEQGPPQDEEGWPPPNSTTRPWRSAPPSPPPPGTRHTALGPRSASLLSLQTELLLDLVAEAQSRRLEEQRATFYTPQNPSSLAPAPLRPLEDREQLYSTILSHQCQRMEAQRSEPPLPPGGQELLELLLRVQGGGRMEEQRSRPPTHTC
UniProt Q9Y2X7: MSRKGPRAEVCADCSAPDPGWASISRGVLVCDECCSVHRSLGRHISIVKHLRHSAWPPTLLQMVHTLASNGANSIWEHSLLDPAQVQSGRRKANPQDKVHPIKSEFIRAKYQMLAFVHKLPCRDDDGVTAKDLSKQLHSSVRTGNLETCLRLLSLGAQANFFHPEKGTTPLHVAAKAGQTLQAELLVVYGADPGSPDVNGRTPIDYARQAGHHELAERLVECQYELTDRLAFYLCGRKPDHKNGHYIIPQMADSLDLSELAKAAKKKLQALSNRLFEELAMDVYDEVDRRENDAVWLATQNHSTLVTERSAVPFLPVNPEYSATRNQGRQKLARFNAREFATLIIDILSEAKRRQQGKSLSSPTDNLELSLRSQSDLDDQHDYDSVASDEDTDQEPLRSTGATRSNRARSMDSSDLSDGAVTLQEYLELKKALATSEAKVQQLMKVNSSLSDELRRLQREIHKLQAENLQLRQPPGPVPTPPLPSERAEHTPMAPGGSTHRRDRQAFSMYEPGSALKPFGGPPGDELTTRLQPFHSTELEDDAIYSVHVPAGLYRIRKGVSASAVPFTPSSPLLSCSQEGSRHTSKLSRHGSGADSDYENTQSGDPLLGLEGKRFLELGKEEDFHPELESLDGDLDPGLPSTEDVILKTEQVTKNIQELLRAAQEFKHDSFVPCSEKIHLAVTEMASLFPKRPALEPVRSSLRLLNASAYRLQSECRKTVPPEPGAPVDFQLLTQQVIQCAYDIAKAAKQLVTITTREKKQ
UniProt Q9Y5Q9: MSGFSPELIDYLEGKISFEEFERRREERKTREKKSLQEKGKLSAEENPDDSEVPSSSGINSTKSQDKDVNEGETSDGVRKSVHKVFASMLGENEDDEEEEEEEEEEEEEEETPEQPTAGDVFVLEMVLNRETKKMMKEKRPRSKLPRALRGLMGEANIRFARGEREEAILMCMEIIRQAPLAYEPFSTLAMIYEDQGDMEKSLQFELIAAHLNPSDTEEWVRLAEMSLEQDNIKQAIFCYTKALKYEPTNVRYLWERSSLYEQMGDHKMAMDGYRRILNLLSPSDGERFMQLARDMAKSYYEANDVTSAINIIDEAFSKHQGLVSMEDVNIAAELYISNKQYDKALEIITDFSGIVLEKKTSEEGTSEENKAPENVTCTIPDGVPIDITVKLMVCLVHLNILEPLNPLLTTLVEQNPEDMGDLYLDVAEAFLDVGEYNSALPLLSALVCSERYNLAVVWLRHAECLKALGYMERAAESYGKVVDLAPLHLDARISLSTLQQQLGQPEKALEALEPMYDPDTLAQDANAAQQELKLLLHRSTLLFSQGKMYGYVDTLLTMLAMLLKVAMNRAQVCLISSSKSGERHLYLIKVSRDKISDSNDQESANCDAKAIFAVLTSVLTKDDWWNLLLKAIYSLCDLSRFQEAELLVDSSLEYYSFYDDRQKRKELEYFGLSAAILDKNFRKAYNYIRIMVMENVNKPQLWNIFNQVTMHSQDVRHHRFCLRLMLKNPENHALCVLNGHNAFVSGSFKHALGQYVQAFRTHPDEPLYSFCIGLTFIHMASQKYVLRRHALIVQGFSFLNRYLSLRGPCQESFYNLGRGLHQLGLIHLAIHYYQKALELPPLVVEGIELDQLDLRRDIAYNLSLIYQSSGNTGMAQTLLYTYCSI

Target	log2 fold change
UniProt Q9Y6W6 (peptide sequence: EGKEPLVLK, peptide start residue: 262)	0.313
KPTN (peptide sequence: GELLAATLK, peptide start residue: 39) (UniProt Q9Y664)	0.234
TELO2 (peptide sequence: ALEGLVYR, peptide start residue: 537) (UniProt Q9Y4R8)	-0.171
UniProt Q9Y2J4 (peptide sequence: LIQEQLR, peptide start residue: 102)	0.253
LAS1L (peptide sequence: RFSAGQWEAR, peptide start residue: 439) (UniProt Q9Y4W2)	0.342
MRPS17 (peptide sequence: LVLDPYLLK, peptide start residue: 33) (UniProt Q9Y2R5)	0.0396
UniProt Q9Y5V0 (peptide sequence: AALIYTCTVCR, peptide start residue: 35)	-0.0137
WDR7 (peptide sequence: GGSFLTGKR, peptide start residue: 730) (UniProt Q9Y4E6)	0.446
CFL2 (peptide sequence: AVLFCLSDDKR, peptide start residue: 35) (UniProt Q9Y281)	-0.272
MRPS7 (peptide sequence: KPVEELTEEEK, peptide start residue: 53) (UniProt Q9Y2R9)	0.438
IFT52 (peptide sequence: STILFNAYKK, peptide start residue: 7) (UniProt Q9Y366)	0.352
WBP11 (peptide sequence: ENPDIYKELR, peptide start residue: 99) (UniProt Q9Y2W2)	-0.222
USP3 (peptide sequence: NQENGPVCSLR, peptide start residue: 355) (UniProt Q9Y6I4)	0.23
UniProt Q9Y6E0 (peptide sequence: ADPEELFTK, peptide start residue: 30)	-0.38
EXOC6B (peptide sequence: TLSNSLQNVIK, peptide start residue: 537) (UniProt Q9Y2D4)	-0.382
CARD8 (peptide sequence: ECPEKSSSSEEELPR, peptide start residue: 5) (UniProt Q9Y2G2)	0.433
DDX52 (peptide sequence: EESLTER, peptide start residue: 75) (UniProt Q9Y2R4)	-0.174
UniProt Q9Y3M9 (peptide sequence: NLGLAHQR, peptide start residue: 95)	0.312
CLIC4 (peptide sequence: KPADLQNLAPGTHPPFITFNSEVK, peptide start residue: 62) (UniProt Q9Y696)	0.275

Target	log2 fold change
ICE1 (peptide sequence: SSGIEYTK, peptide start residue: 720) (UniProt Q9Y2F5)	0.417
UniProt Q9Y2K7 (peptide sequence: SSPGAGPSDHHSASRDER, peptide start residue: 739)	0.821
MSRB2 (peptide sequence: QCEAHLGHVFPDGPGPNGQR, peptide start residue: 148) (UniProt Q9Y3D2)	-0.1
RRP7A (peptide sequence: CAARDPEDRIPSPLGYAAIPIK, peptide start residue: 8) (UniProt Q9Y3A4)	0.197
C15orf41 (peptide sequence: HAIGHEHEVLLR, peptide start residue: 159) (UniProt Q9Y2V0)	0.321
STRAP (peptide sequence: EISGHTSGIKK, peptide start residue: 138) (UniProt Q9Y3F4)	0.83
MRPS16 (peptide sequence: LALGGCTNRPFYR, peptide start residue: 21) (UniProt Q9Y3D3)	-0.165
MRPS2 (peptide sequence: HRFMEPYIFGSR, peptide start residue: 99) (UniProt Q9Y399)	0.538
ASB1 (peptide sequence: STPVYHASR, peptide start residue: 145) (UniProt Q9Y576)	-0.0816
THRAP3 (peptide sequence: RNREEEWDPEYTPK, peptide start residue: 863) (UniProt Q9Y2W1)	0.266
GPSM3 (peptide sequence: SRPPTHTC, peptide start residue: 153) (UniProt Q9Y4H4)	0.192
MAGMAS (peptide sequence: LSPEEVQK, peptide start residue: 68) (UniProt Q9Y3D7)	-0.206
GMPPB (peptide sequence: SIGESVPEPR, peptide start residue: 348) (UniProt Q9Y5P6)	-0.0778
UniProt Q9Y6X3 (peptide sequence: FLRETLK, peptide start residue: 481)	-0.22
GIT1 (peptide sequence: LQAENLQLR, peptide start residue: 464) (UniProt Q9Y2X7)	-0.23
GTF3C3 (peptide sequence: YNLAVVWLR, peptide start residue: 453) (UniProt Q9Y5Q9)	1.85
TRAF6 (peptide sequence: METQSMYVSELKR, peptide start residue: 320) (UniProt Q9Y4K3)	0.246
RABGAP1 (peptide sequence: CREFFNK, peptide start residue: 972) (UniProt Q9Y3P9)	-0.583

Two records picked at random from the list so far:
Target	log2 fold change
UniProt Q9Y5V0 (peptide sequence: AALIYTCTVCR, peptide start residue: 35)	-0.0137
TRAF6 (peptide sequence: METQSMYVSELKR, peptide start residue: 320) (UniProt Q9Y4K3)	0.246

— the supplement of paper PMC12819154, “High-throughput peptide-centric local stability assay extends protein–ligand identification to membrane proteins, tissues and bacteria” (Nature Structural & Molecular Biology, 2025)
